Laboratory results published in paper doi:10.1101/359943.
No constants are given. Whether binding was seen depends on the method and setting. For some assays here: In cells and extracts the contact can be indirect. Some binding calls cover weakened binding; strength is not graded here. For some assays here: Where a sequence is shown, tags or fusion partners need not be part of it.

Sequences of proteins named here, by UniProt entry; tags and fusion partners are left off.
UniProt A0ACD7PUJ9: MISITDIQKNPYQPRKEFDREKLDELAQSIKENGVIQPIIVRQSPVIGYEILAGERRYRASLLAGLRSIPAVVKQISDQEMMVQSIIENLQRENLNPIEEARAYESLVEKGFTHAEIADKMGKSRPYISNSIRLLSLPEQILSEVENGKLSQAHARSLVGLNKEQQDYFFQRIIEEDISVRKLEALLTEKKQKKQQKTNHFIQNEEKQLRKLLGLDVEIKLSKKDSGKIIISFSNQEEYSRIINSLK

How the values were obtained:
[1] = biological target: RocS in S. pneumoniae cells (tagged fusion for co-immunoprecipitation) (Streptococcus pneumoniae) (UniProt Q8DQ15); experiment: co-IP
[2] = biological target: T1, RocS-ΔAH-6His (Streptococcus pneumoniae) (UniProt Q8DQ15); experiment: MST
T1 sequence (chain, labeled with the red dye NT-647): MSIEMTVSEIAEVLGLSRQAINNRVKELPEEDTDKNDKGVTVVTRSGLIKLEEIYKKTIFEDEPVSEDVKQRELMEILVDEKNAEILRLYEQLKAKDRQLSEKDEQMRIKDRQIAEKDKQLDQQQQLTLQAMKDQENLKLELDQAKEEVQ

## ParB in S. pneumoniae cells (tagged fusion for co-immunoprecipitation) (from UniProt A0ACD7PUJ9 1-247)
[1]
  binding: binds

## ParB-6His (from UniProt A0ACD7PUJ9 1-247)
[2]
  binding: binds
